Test results published in PubChem BioAssay AID1487 (National Center for Advancing Translational Sciences (NCATS), 2009).
This is one part of the list. Shown are side measurements of this screen, not its main read-out; they come without a call. The list favours compounds with an active or inconclusive main result. The note in brackets gives the kind of curve behind each potency; many fits are weak.

Assay: qHTS Assay for Modulators of Lamin A Splicing
Conditions: HeLa LMNA splicing GFP/RFP minigene ratio, 48 h
Summary of the method: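 S3 HeLa stable clones carrying a lamin A-EGFP splicing minigene plus DsRed2 were seeded at 600 cells/well in Opti-MEM with 2% FBS, pin-dosed and incubated 48 h at 37°C. Acumen cytometry (488 nm) gave the GFP/RFP total-intensity ratio.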

[1] = measured here: GFP splicing reporter channel
[2] = measured here: RFP viability control channel

SMILES	AC50 [1]	AC50 [2]
Cc1ccccc1C(=O)c1cccn1CC(=O)N1CCCCCC1	3.16 µM [falling, single point]	5.62 µM [falling, single point]
COc1cccc(N2CCN(CC(=O)Nc3nnc(-c4ccccc4)s3)CC2)c1	15.8 µM [rising, single point]	17.8 µM [rising, partial curve]
CSc1nnnn1CCn1nnnc1SC	–	0.02 µM [falling, full curve, poor fit]
COc1cccc(OCc2cc(C3Nc4ccccc4C(=O)N3Cc3ccco3)ccc2OC)c1 (stereo not given)	–	10 µM [rising, partial curve]
COc1ccc(C(=O)O)cc1F	5.01 µM [falling, partial curve, poor fit]	0.891 µM [falling, partial curve, poor fit]
COc1cccc(/C=C/C(=O)OCC(=O)c2cc(C)n(CC3CCCO3)c2C)c1OC (stereo not given)	–	22.4 µM [rising, single point]
CC1=C(C(=O)OCc2ccccc2)C(c2cccnc2)n2nnnc2N1 (stereo not given)	14.1 µM [rising, partial curve]	15.8 µM [rising, single point]
Cc1cccc(-c2ncc(CN3CCCC(CO)(Cc4cccc(Cl)c4)C3)cn2)c1 (stereo not given)	25.1 µM [rising, partial curve, poor fit]	7.94 µM [rising, partial curve, poor fit]
COc1ccc(N/C=C(\C(C)=O)c2ccc(OC)c(OC)c2)cc1OC	0.447 µM [falling, partial curve, poor fit]	6.31 µM [falling, full curve, poor fit]
O=C1CC(C2CCCO2)C(=O)N1c1cccc(Cl)c1 (stereo not given)	3.16 µM [rising, single point]	2.82 µM [rising, single point]
CCOc1cccc(/C=N/NC(=S)Nc2cc(S(=O)(=O)N3CCOCC3)ccc2N2CCOCC2)c1O	1.41 µM [rising, full curve]	17.8 µM [rising, partial curve]
O=C(CCCn1c(=S)[nH]c2ccccc2c1=O)NC1CCCC1	–	5.62 µM [rising, single point]
CC(C)(C)Nc1nc(SCc2ccccc2)nc(N2CCOCC2)n1	–	25.1 µM [rising, single point]
COc1ccc(-c2nnc(SCc3nnc(-c4ccc(Cl)cc4)o3)n2-c2ccccc2)cc1	4.47 µM [rising, single point]	20 µM [rising, single point]
O=C(COn1nnc2ccc(C(F)(F)F)cc21)Nc1nnc(-c2ccccc2)o1	–	22.4 µM [rising, single point]
COc1ccc(S(=O)(=O)N2CCCOC2CNC(=O)C(=O)NCCCn2ccnc2)cc1 (stereo not given)	0.00316 µM [rising, full curve, poor fit]	–
CCc1ccc(NC(=S)NNC(=O)c2ccccc2OC(F)F)cc1	17.8 µM [rising, single point]	14.1 µM [rising, partial curve]
COC(=O)c1ccccc1NC(=O)C12CC3CC(C1)CC(n1cnc(Cl)n1)(C3)C2	–	25.1 µM [rising, single point]
CC(Oc1ccc2ccccc2c1)C(=O)NNC(=S)NC(=O)c1ccco1 (stereo not given)	–	10 µM [rising, partial curve, poor fit]
COc1cccc(-n2nnnc2SCC(=O)NCc2ccc3c(c2)OCO3)c1	3.16 µM [falling, partial curve, poor fit]	2.82 µM [falling, partial curve]
O=C(c1cccc([N+](=O)[O-])c1)N1CCN(c2ccc(Cl)cc2)CC1	10 µM [rising, partial curve, poor fit]	14.1 µM [rising, partial curve]
Cc1cccc(CCNC(=O)c2nc(-c3ccc(Cl)cc3)n3c2CCCCC3)c1	35.5 µM [rising, single point]	35.5 µM [rising, single point]
CCOC(=O)c1cc(CC)sc1NC(=O)CSc1nc2ccccc2c(=O)n1Cc1ccco1	0.224 µM [rising, partial curve]	–
CCN1CCN(c2ncc3c(n2)CCN(Cc2ccc(C)s2)C3)CC1	0.178 µM [rising, full curve, poor fit]	0.316 µM [rising, full curve, poor fit]
Cc1noc(C)c1S(=O)(=O)Nc1ccc(C(=O)N2CCN(c3cccc(Cl)c3)CC2)cc1	–	28.2 µM [rising, single point]
CCOc1ccc(C(=O)OCc2cc(=O)n3nc(C(C)C)sc3n2)cc1	0.112 µM [falling, full curve, poor fit]	–

SMILES	AC50 [1]	AC50 [2]
Cc1ccc(NC(=O)C2CCN(S(=O)(=O)c3c(C)noc3C)CC2)cc1C	–	0.0224 µM [falling, full curve, poor fit]
COc1cccc(NC(=O)CN2C(=O)C3(SCC(=O)N3c3cc(C)cc(C)c3)c3ccccc32)c1 (stereo not given)	8.91 µM [falling, full curve, poor fit]	–
COC(=O)c1cc2oc(C)cc2n1Cc1ccc(Cl)cc1	2.51 µM [falling, full curve, poor fit]	–
O=C(OCCN1C(=O)c2cccc3c(N4CCOCC4)ccc(c23)C1=O)c1cc(Cl)cc(Cl)c1	–	5.62 µM [rising, single point]
c1ccc(Cc2ccc(OCCn3cncn3)cc2)cc1	–	20 µM [rising, single point]
Cc1cc(C(=O)CSc2nnc(-c3cccs3)n2Cc2ccccc2)c(C)n1C	7.94 µM [rising, partial curve, poor fit]	11.2 µM [rising, partial curve, poor fit]
Cn1c(=O)c2ncn(CC(=O)Nc3cccc(-c4nc5ccccc5s4)c3)c2n(C)c1=O	1.26 µM [rising, full curve]	2.24 µM [rising, full curve]
O=C(CSc1nccn1C1CCCC1)Nc1ccccc1	–	0.00316 µM [falling, full curve, poor fit]
COc1ccc2c(c1)Cc1sc(NC(=O)c3cccc(Cl)c3)nc1-2	35.5 µM [falling, single point]	28.2 µM [falling, partial curve, poor fit]
CCCC(=O)NC(=S)Nc1ccc(CN2CCOCC2)cc1	1.41 µM [falling, full curve, poor fit]	8.91 µM [falling, partial curve, poor fit]
COc1ccccc1C(=O)NNC(=O)c1ccc(NC(=O)c2ccccc2)cc1	0.0398 µM [falling, full curve, poor fit]	0.0282 µM [falling, full curve, poor fit]
O=C1CCS/C(=N\N=C\c2ccc(Cl)cc2Cl)N1	0.794 µM [rising, partial curve, poor fit]	–
CCCN(CCC)CCCNC(=O)c1nn(C)c2c1CS(=O)(=O)c1ccccc1-2	0.0251 µM [falling, full curve, poor fit]	–
CN1C(=O)/C(=C/c2ccc(O)c([N+](=O)[O-])c2)NC1=S	0.0891 µM [falling, full curve, poor fit]	6.31 µM [falling, full curve]
COc1cccc(CC2(CO)CCCN(Cc3nc(-c4cccs4)oc3C)C2)c1 (stereo not given)	–	0.00316 µM [falling, full curve, poor fit]
Cn1c(=O)c2c(nc(CN3CCN(C(=O)c4ccco4)CC3)n2Cc2cccc(Cl)c2)n(C)c1=O	–	0.00355 µM [falling, full curve, poor fit]
CCOC(=O)c1c(NC(=O)CN2C(=O)NC(C)(c3ccccc3)C2=O)sc(C)c1C (stereo not given)	–	15.8 µM [falling, single point]
O=C(CN1C(=O)S/C(=C\C=C\c2ccccc2)C1=O)Nc1cccc(O)c1	–	11.2 µM [rising, partial curve, poor fit]
COC(=O)CCC(=O)OC1(C)C(=O)C=C2C=C(C3CC3)N(CCc3ccccn3)C=C2C1=O (stereo not given)	–	1.58 µM [rising, partial curve, poor fit]
O=C(O)/C=C/c1ccc2noc(-c3ccccc3)c2c1	0.0398 µM [falling, full curve, poor fit]	0.00316 µM [falling, full curve, poor fit]
O=C(Nc1ccc(N2CCOCC2)c(Cl)c1)c1c(F)c(F)c(F)c(F)c1F	–	17.8 µM [falling, partial curve, poor fit]
Cc1ccccc1C(=O)NC(NC(=O)c1ccccc1C)c1cccc([N+](=O)[O-])c1	14.1 µM [rising, single point]	11.2 µM [rising, partial curve]
Cc1ccc(C)c(NC(=O)COc2cccc3c2CCN(Cc2ccccc2)C3=O)c1	–	0.1 µM [rising, full curve, poor fit]
CCN(CCCn1c(SCC#N)nc2ccccc2c1=O)c1ccccc1	11.2 µM [rising, partial curve]	15.8 µM [rising, partial curve]
O=c1cc(N2CCN(c3ccc(F)cc3)CC2)[nH]c(=O)n1-c1cccc(Br)c1	–	7.94 µM [rising, partial curve]
N#Cc1c(C(F)(F)F)cc(-c2ccc(Cl)cc2)[nH]c1=O	–	25.1 µM [rising, single point]

Complete entries from above. Order of values: AC50 [1]	AC50 [2]
`O=C(O)/C=C/c1ccc2noc(-c3ccccc3)c2c1` as listed: 0.0398 µM [falling, full curve, poor fit]	0.00316 µM [falling, full curve, poor fit]
`COc1cccc(NC(=O)CN2C(=O)C3(SCC(=O)N3c3cc(C)cc(C)c3)c3ccccc32)c1` (stereo not given) as listed: 8.91 µM [falling, full curve, poor fit]	–
